PubChem BioAssay AID1224830 – NIAID | 2016
Test: 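Host factors that control LPS-induced TNF expression in human macrophages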 (primary screen). Cell system: human THP-1 monocytic leukaemia cells, TNF dual-luciferase reporter clone, PMA-differentiated to macrophage-like cells. Knock-down reagent: siRNA pool against human genes, 50 nM. Time to read-out: LPS for 4 h, given about 3 days after siRNA transfection. Challenge: bacterial LPS (TLR4 ligand), 10 ng/ml. Measured: 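Ratio of firefly to renilla light, scaled to the plate median and expressed as a robust z-score per replicate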. Scale: TNF reporter robust z-score: higher = stronger TNF reporter response to LPS. Hit rule: 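Each well counts as active if its z-score is over 2.8 or under -1.5; controls are left without a call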.
Shown is one part, drawn at random, of about 18,000 reagents. Over the whole deposit, about 2,900 (16%) got an active call. 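Calls are made per well; low scores hint the gene aids the LPS response, high scores that it dampens it.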 A number with no mark means an inactive call. Repeated entries: four replicate wells of each siRNA pool.

| gene | TNF reporter robust z-score |
| --- | --- |
| COIL (coilin) | -1.26 |
| COIL (coilin) | -0.33 |
| COIL (coilin) | -0.62 |
| COIL (coilin) | -0.57 |
| STT3A (STT3 oligosaccharyltransferase complex catalytic subunit A) | 0.18 |
| STT3A (STT3 oligosaccharyltransferase complex catalytic subunit A) | 0.57 |
| STT3A (STT3 oligosaccharyltransferase complex catalytic subunit A) | 0.44 |
| STT3A (STT3 oligosaccharyltransferase complex catalytic subunit A) | 0.74 |
| G2E3 (G2/M-phase specific E3 ubiquitin protein ligase) | -0.73 |
| G2E3 (G2/M-phase specific E3 ubiquitin protein ligase) | 1.78 |
| G2E3 (G2/M-phase specific E3 ubiquitin protein ligase) | -1.57 (active) |
| G2E3 (G2/M-phase specific E3 ubiquitin protein ligase) | 3.41 (active) |
| TFAP2A (transcription factor AP-2 alpha) | 2.08 |
| TFAP2A (transcription factor AP-2 alpha) | 0.1 |
| TFAP2A (transcription factor AP-2 alpha) | 1.46 |
| TFAP2A (transcription factor AP-2 alpha) | 0.51 |
| ARHGAP21 (Rho GTPase activating protein 21) | -0.61 |
| ARHGAP21 (Rho GTPase activating protein 21) | -0.78 |
| ARHGAP21 (Rho GTPase activating protein 21) | -0.25 |
| ARHGAP21 (Rho GTPase activating protein 21) | -0.53 |
| CXCR4 (C-X-C motif chemokine receptor 4) | -1.55 (active) |
| CXCR4 (C-X-C motif chemokine receptor 4) | -1.16 |
| CXCR4 (C-X-C motif chemokine receptor 4) | -1.74 (active) |
| CXCR4 (C-X-C motif chemokine receptor 4) | -1.7 (active) |
| PBXIP1 (PBX homeobox interacting protein 1) | 1.7 |
| PBXIP1 (PBX homeobox interacting protein 1) | 0.61 |
| PBXIP1 (PBX homeobox interacting protein 1) | -0.07 |
| PBXIP1 (PBX homeobox interacting protein 1) | 2.9 (active) |
| RETREG2 (reticulophagy regulator family member 2) | -0.6 |
| RETREG2 (reticulophagy regulator family member 2) | -0.61 |
| RETREG2 (reticulophagy regulator family member 2) | -1.06 |
| RETREG2 (reticulophagy regulator family member 2) | -0.99 |
| OBP2B (odorant binding protein 2B) | -0.9 |
| OBP2B (odorant binding protein 2B) | 0.01 |
| OBP2B (odorant binding protein 2B) | 0.14 |
| OBP2B (odorant binding protein 2B) | -0.12 |
| ENOX1 (ecto-NOX disulfide-thiol exchanger 1) | -0.37 |
| ENOX1 (ecto-NOX disulfide-thiol exchanger 1) | 1.38 |
| ENOX1 (ecto-NOX disulfide-thiol exchanger 1) | -0.8 |
| ENOX1 (ecto-NOX disulfide-thiol exchanger 1) | -0.74 |
| KLHL2 (kelch like family member 2) | 0.84 |
| KLHL2 (kelch like family member 2) | 0.37 |
| KLHL2 (kelch like family member 2) | 0.38 |
| KLHL2 (kelch like family member 2) | 0.89 |
| CYB5R5 (cytochrome b5 reductase 5 (putative)) | -0.12 |
| CYB5R5 (cytochrome b5 reductase 5 (putative)) | 1.15 |
| CYB5R5 (cytochrome b5 reductase 5 (putative)) | 0.57 |
| CYB5R5 (cytochrome b5 reductase 5 (putative)) | 0.2 |
| EIF3G (eukaryotic translation initiation factor 3 subunit G) | -0.21 |
| EIF3G (eukaryotic translation initiation factor 3 subunit G) | 0.28 |
| EIF3G (eukaryotic translation initiation factor 3 subunit G) | 0.27 |
| EIF3G (eukaryotic translation initiation factor 3 subunit G) | 0.1 |
| POLR2I (RNA polymerase II subunit I) | -0.07 |
| POLR2I (RNA polymerase II subunit I) | 0.14 |
| POLR2I (RNA polymerase II subunit I) | -0.22 |
| POLR2I (RNA polymerase II subunit I) | 0.42 |
| FDPS (farnesyl diphosphate synthase) | -1.25 |
| FDPS (farnesyl diphosphate synthase) | -0.81 |
| FDPS (farnesyl diphosphate synthase) | -0.7 |
| FDPS (farnesyl diphosphate synthase) | -1.12 |

Quoted from the entries so far, 12 entries:
| gene | TNF reporter robust z-score |
| --- | --- |
| EIF3G (eukaryotic translation initiation factor 3 subunit G) | -0.21 |
| EIF3G (eukaryotic translation initiation factor 3 subunit G) | 0.28 |
| EIF3G (eukaryotic translation initiation factor 3 subunit G) | 0.27 |
| EIF3G (eukaryotic translation initiation factor 3 subunit G) | 0.1 |
| POLR2I (RNA polymerase II subunit I) | -0.07 |
| POLR2I (RNA polymerase II subunit I) | 0.14 |
| POLR2I (RNA polymerase II subunit I) | -0.22 |
| POLR2I (RNA polymerase II subunit I) | 0.42 |
| FDPS (farnesyl diphosphate synthase) | -1.25 |
| FDPS (farnesyl diphosphate synthase) | -0.81 |
| FDPS (farnesyl diphosphate synthase) | -0.7 |
| FDPS (farnesyl diphosphate synthase) | -1.12 |

Further records follow.
| gene | TNF reporter robust z-score |
| --- | --- |
| C10orf120 (chromosome 10 open reading frame 120) | 0.53 |
| C10orf120 (chromosome 10 open reading frame 120) | -0.76 |
| C10orf120 (chromosome 10 open reading frame 120) | -0.72 |
| C10orf120 (chromosome 10 open reading frame 120) | -1.45 |
| TUBGCP3 (tubulin gamma complex component 3) | 1.44 |
| TUBGCP3 (tubulin gamma complex component 3) | 0.37 |
| TUBGCP3 (tubulin gamma complex component 3) | 0.08 |
| TUBGCP3 (tubulin gamma complex component 3) | 0.61 |
| ASMT (acetylserotonin O-methyltransferase) | 0.86 |
| ASMT (acetylserotonin O-methyltransferase) | 0.5 |
| ASMT (acetylserotonin O-methyltransferase) | 1.2 |
| ASMT (acetylserotonin O-methyltransferase) | 0.9 |
| TCHHL1 (trichohyalin like 1) | -1.03 |
| TCHHL1 (trichohyalin like 1) | -0.97 |
| TCHHL1 (trichohyalin like 1) | -0.82 |
| TCHHL1 (trichohyalin like 1) | -0.43 |
| UMPS (uridine monophosphate synthetase) | 0.4 |
| UMPS (uridine monophosphate synthetase) | 0.59 |
| UMPS (uridine monophosphate synthetase) | -0.79 |
| UMPS (uridine monophosphate synthetase) | 0.21 |
| TAS2R50 (taste 2 receptor member 50) | -1.07 |
| TAS2R50 (taste 2 receptor member 50) | -1.34 |
| TAS2R50 (taste 2 receptor member 50) | -0.97 |
| TAS2R50 (taste 2 receptor member 50) | -0.31 |
| HHAT (hedgehog acyltransferase) | -1.05 |
| HHAT (hedgehog acyltransferase) | 0.01 |
| HHAT (hedgehog acyltransferase) | -0.09 |
| HHAT (hedgehog acyltransferase) | 0.34 |
| HMGB2 (high mobility group box 2) | 2.02 |
| HMGB2 (high mobility group box 2) | -0.13 |
| HMGB2 (high mobility group box 2) | 2.38 |
| HMGB2 (high mobility group box 2) | 4.16 (active) |
| MFRP (membrane frizzled-related protein) | 0.43 |
| MFRP (membrane frizzled-related protein) | 0.68 |
| MFRP (membrane frizzled-related protein) | 0.29 |
| MFRP (membrane frizzled-related protein) | 0.63 |
| GCLC (glutamate-cysteine ligase catalytic subunit) | 0.43 |
| GCLC (glutamate-cysteine ligase catalytic subunit) | 1.19 |
| GCLC (glutamate-cysteine ligase catalytic subunit) | 0.06 |
| GCLC (glutamate-cysteine ligase catalytic subunit) | 1.51 |
| MARK4 (microtubule affinity regulating kinase 4) | 1.75 |
| MARK4 (microtubule affinity regulating kinase 4) | 0.75 |
| MARK4 (microtubule affinity regulating kinase 4) | -0.28 |
| MARK4 (microtubule affinity regulating kinase 4) | -0.04 |
| CXCR2 (C-X-C motif chemokine receptor 2) | -0.15 |
| CXCR2 (C-X-C motif chemokine receptor 2) | 0.09 |
| CXCR2 (C-X-C motif chemokine receptor 2) | -0.33 |
| CXCR2 (C-X-C motif chemokine receptor 2) | -0.12 |
| ODR4 (odr-4 GPCR localization factor homolog) | -0.22 |
| ODR4 (odr-4 GPCR localization factor homolog) | -0.82 |
| ODR4 (odr-4 GPCR localization factor homolog) | 0.32 |
| ODR4 (odr-4 GPCR localization factor homolog) | 0.11 |
